From the supplement of paper PMC10331698
± gives the standard deviation of the averaged measurements. Most values lie at the level of the controls, where differences are scatter.

Key:
Assay in all cases: level (log10 ratio to DMSO vehicle control); higher = higher biomarker level / cell amount than vehicle control
Octafluoroadipic acid = compound: O=C(O)C(F)(F)C(F)(F)C(F)(F)C(F)(F)C(=O)O [Octafluoroadipic acid]; settings: 2200 nM; in DMSO
Procedure: (§1)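 BioMAP Diversity Plus panel of 12 human primary cell co-culture systems (3C, 4H, LPS, SAg, BT, BF4T, BE3C, CASM3C, HDF3CGF, KF3CT, MyoF, Mphg). Compounds were added 1 h before stimulation and left for 24 h (MyoF 48 h; BT 72 h for soluble read-outs or 6 d for IgG). Biomarkers were read by ELISA, cytotoxicity by SRB, PBMC viability and proliferation by Alamar Blue. Each well value was divided by the mean of 8 DMSO control wells on the same plate and log10 transformed; duplicate blinded samples were tested at 4 concentrations.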

[1] = compound: FC(F)(F)C(F)(F)C(F)(F)C(F)(F)C(F)(F)C(F)(F)CC1CO1 [3-(Perfluorohexyl)-1,2-epoxypropane]; settings: 2200 nM; in DMSO
Procedure: as §1

[2] = compound: O=C(O)C(F)(F)C(F)(F)C(F)(F)C(F)(F)C(F)(F)C(F)(F)C(F)(F)C(F)(F)C(F)(F)C(F)F [11-H-Perfluoroundecanoic acid]; settings: 2200 nM; in DMSO
Procedure: as §1

[3] = compound: OCCC(F)(F)C(F)(F)C(F)(F)C(F)(F)C(F)(F)C(F)(F)F [6:2 Fluorotelomer alcohol]; settings: 2200 nM; in DMSO
Procedure: as §1

Perfluoropentanoic acid = compound: O=C(O)C(F)(F)C(F)(F)C(F)(F)C(F)(F)F [Perfluoropentanoic acid]; settings: in DMSO
Procedure: as §1

[4] = compound: O=C(O)C(F)(F)C(F)(F)C(F)(F)OC(F)(F)F [Perfluoro(4-methoxybutanoic) acid]; settings: 2200 nM; in DMSO
Procedure: as §1

Perfluoroheptanoic acid = compound: O=C(O)C(F)(F)C(F)(F)C(F)(F)C(F)(F)C(F)(F)C(F)(F)F [Perfluoroheptanoic acid]; settings: in DMSO
Procedure: as §1

[5] = compound: CCN(CCO)S(=O)(=O)C(F)(F)C(F)(F)C(F)(F)C(F)(F)C(F)(F)C(F)(F)C(F)(F)C(F)(F)F [N-Ethyl-N-(2-hydroxyethyl)perfluorooctanesulfonamide]; settings: in DMSO
Procedure: as §1

[6] = compound: CN(C(=O)C(F)(F)C(F)(F)C(F)(F)F)[Si](C)(C)C [N-Methyl-N-trimethylsilylheptafluorobutyramide]; settings: 2200 nM; in DMSO
Procedure: as §1

[7] = compound: Cc1ccc(S(=O)(=O)OCC(F)(F)C(F)(F)C(F)(F)C(F)(F)C(F)(F)C(F)F)cc1 [1H,1H,7H-Perfluoroheptyl 4-methylbenzenesulfonate]; settings: 2200 nM; in DMSO
Procedure: as §1

[8] = compound: O=S(=O)(O)CCC(F)(F)C(F)(F)C(F)(F)C(F)(F)C(F)(F)C(F)(F)C(F)(F)C(F)(F)F [8:2 Fluorotelomer sulfonic acid]; settings: in DMSO
Procedure: as §1

[9] = compound: NCC(F)(F)C(F)(F)C(F)(F)C(F)(F)C(F)(F)C(F)(F)C(F)(F)F [1H,1H-Perfluorooctylamine]; settings: 2200 nM; in DMSO
Procedure: as §1

[10] = compound: CC(C)(C)C(=O)CC(=O)C(F)(F)C(F)(F)C(F)(F)F [(Heptafluorobutanoyl)pivaloylmethane]; settings: 2200 nM; in DMSO
Procedure: as §1

Heptafluorobutyramide = compound: NC(=O)C(F)(F)C(F)(F)C(F)(F)F [Heptafluorobutyramide]; settings: 2200 nM; in DMSO
Procedure: as §1

1H,1H-Heptafluorobutanol = compound: OCC(F)(F)C(F)(F)C(F)(F)F [1H,1H-Heptafluorobutanol]; settings: 2200 nM; in DMSO
Procedure: as §1

1-(Perfluorohexyl)octane = compound: CCCCCCCCC(F)(F)C(F)(F)C(F)(F)C(F)(F)C(F)(F)C(F)(F)F [1-(Perfluorohexyl)octane]; settings: in DMSO
Procedure: as §1

Test System	level (log10) (Octafluoroadipic acid)	level (log10) [1]	level (log10) [2]	level (log10) [3]	level (log10) (Perfluoropentanoic acid; 2200 nM)	level (log10) (Perfluoropentanoic acid; 6700 nM)	level (log10) (Perfluoropentanoic acid; 20000 nM)	level (log10) (Perfluoropentanoic acid; 60000 nM)	level (log10) [4]	level (log10) (Perfluoroheptanoic acid; 2200 nM)	level (log10) (Perfluoroheptanoic acid; 6700 nM)	level (log10) (Perfluoroheptanoic acid; 20000 nM)	level (log10) (Perfluoroheptanoic acid; 60000 nM)	level (log10) ([5]; 2200 nM)	level (log10) ([5]; 6700 nM)	level (log10) ([5]; 20000 nM)	level (log10) [6]	level (log10) [7]	level (log10) ([8]; 2200 nM)	level (log10) ([8]; 6700 nM)	level (log10) ([8]; 20000 nM)	level (log10) ([8]; 60000 nM)	level (log10) [9]	level (log10) [10]	level (log10) (Heptafluorobutyramide)	level (log10) (1H,1H-Heptafluorobutanol)	level (log10) (1-(Perfluorohexyl)octane; 740 nM)	level (log10) (1-(Perfluorohexyl)octane; 2200 nM)
lMphg:CCL3/MIP-1alpha	-0.001 ± 0.018	-0.0165 ± 0.022	-0.0125 ± 0.00071	-0.004 ± 0.014	-0.026 ± 0.018	0.008 ± 0.059	-0.006 ± 0.055	0.006 ± 0.055	-0.013 ± 0.034	-0.006 ± 0.0014	-0.0265 ± 0.013	-0.0075 ± 0.0078	0.018 ± 0.017	0.017 ± 0.085	0.0325 ± 0.035	0.112 ± 0.013	0.008 ± 0.014	0.0245 ± 0.023	0.0025 ± 0.018	0.0035 ± 0.03	0.0095 ± 0.026	0.0065 ± 0.032	0.0105 ± 0.013	-0.02 ± 0.0042	-0.006 ± 0.034	0.016 ± 0.016	0.0185 ± 0.016	-0.0065 ± 0.013
lMphg:CD40	-0.0475 ± 0.012	-0.0145 ± 0.021	-0.0265 ± 0.018	-0.015 ± 0.024	-0.021 ± 0.0014	0.0225 ± 0.0092	-0.0085 ± 0.0064	0.0175 ± 0.0078	-0.0365 ± 0.025	-0.0285 ± 0.028	-0.0045 ± 0.018	-0.0265 ± 0.012	-0.028 ± 0.027	-0.011 ± 0.0057	-0.025 ± 0.017	-0.0335 ± 0.018	-0.0005 ± 0.052	-0.0075 ± 0.00071	-0.03 ± 0.034	-0.026 ± 0.023	-0.052 ± 0.0028	-0.0995 ± 0.019	-0.0245 ± 0.042	0.024 ± 0.04	-0.009 ± 0.0099	0 ± 0.017	-0.013 ± 0.0014	-0.0015 ± 0.021
lMphg:CD62E/E-Selectin	-0.01 ± 0.058	-0.0175 ± 0.0078	-0.025 ± 0.054	0.003 ± 0.016	0 ± 0.0042	0.012 ± 0.0057	-0.008 ± 0.014	0.003 ± 0.042	-0.014 ± 0.04	-0.015 ± 0.047	-0.026 ± 0.0028	0 ± 0.024	0.025 ± 0.018	0.0175 ± 0.019	0.0935 ± 0.0078	0.14 ± 0.0099	-0.015 ± 0.048	-0.0155 ± 0.03	0.0005 ± 0.029	0.0165 ± 0.0092	0.048 ± 0.0042	0.103 ± 0.0057	0.0075 ± 0.03	-0.0115 ± 0.0092	0.03 ± 0.042	0.0085 ± 0.016	-0.0235 ± 0.026	0.006 ± 0.03
lMphg:CD69	-0.0145 ± 0.094	-0.0075 ± 0.032	-0.0405 ± 0.028	-0.0225 ± 0.081	-0.008 ± 0.028	-0.0315 ± 0.0092	-0.0525 ± 0.013	0.0175 ± 0.077	0.0425 ± 0.05	-0.0045 ± 0.042	-0.019 ± 0.038	-0.021 ± 0.041	-0.0205 ± 0.064	-0.0095 ± 0.035	-0.0715 ± 0.012	-0.129 ± 0.0099	0 ± 0.02	-0.035 ± 0.033	-0.0365 ± 0.036	-0.0695 ± 0.023	-0.059 ± 0.0028	-0.173 ± 0.025	0 ± 0.011	-0.0095 ± 0.021	-0.012 ± 0.027	-0.045 ± 0.044	-0.0475 ± 0.037	-0.044 ± 0.054
lMphg:CD106/VCAM-1	-0.0185 ± 0.005	0.013 ± 0.013	-0.017 ± 0.014	-0.006 ± 0.0071	-0.0055 ± 0.0064	0.005 ± 0.02	0.0125 ± 0.018	0.016 ± 0.0057	-0.0165 ± 0.033	0.007 ± 0.013	-0.0115 ± 0.005	0.001 ± 0.0014	-0.0095 ± 0.032	-0.01 ± 0.0028	-0.037 ± 0.03	-0.0435 ± 0.035	-0.03 ± 0.0071	-0.0365 ± 0.07	-0.0125 ± 0.0021	-0.0355 ± 0.005	-0.042 ± 0.0071	-0.08 ± 0.0057	-0.0045 ± 0.011	-0.016 ± 0.018	0	0.0185 ± 0.0021	-0.0485 ± 0.083	-0.0345 ± 0.061
lMphg:CXCL8/IL-8	-0.0035 ± 0.016	0.0185 ± 0.035	0.0165 ± 0.067	-0.0125 ± 0.086	-0.03 ± 0.031	0.005 ± 0.031	-0.0275 ± 0.013	0.044 ± 0.064	0.032 ± 0.11	0.0055 ± 0.074	-0.0125 ± 0.0035	0.032 ± 0.0042	0.18 ± 0.035	0.0125 ± 0.0021	-0.047 ± 0.048	-0.032 ± 0.016	0.0075 ± 0.022	0.0225 ± 0.046	-0.03 ± 0.0028	0.001 ± 0.0085	0.022 ± 0.013	0.0775 ± 0.0035	0.044 ± 0.071	0.007 ± 0.02	0.0235 ± 0.093	0.022 ± 0.018	0.004 ± 0.013	0.0015 ± 0.016
lMphg:IL-1alpha	-0.007 ± 0.033	-0.0075 ± 0.032	-0.02 ± 0.03	0.0265 ± 0.026	-0.016 ± 0.02	-0.0095 ± 0.022	-0.0195 ± 0.046	0.01 ± 0.05	0.019 ± 0.041	-0.0145 ± 0.005	-0.0275 ± 0.042	-0.0025 ± 0.0035	0.0145 ± 0.012	-0.0115 ± 0.059	-0.018 ± 0.054	-0.0235 ± 0.018	0.0065 ± 0.087	0.0005 ± 0.042	-0.0065 ± 0.059	-0.019 ± 0.014	-0.011 ± 0.028	-0.035 ± 0.05	0.035 ± 0.041	0.0225 ± 0.0092	-0.013 ± 0.011	0.0265 ± 0.032	0.009 ± 0.035	-0.0295 ± 0.016
lMphg:M-CSF	0.0005 ± 0.015	-0.0075 ± 0.012	0.0035 ± 0.022	0.008 ± 0.014	-0.016 ± 0.033	-0.028 ± 0.045	0.006 ± 0.035	0.0095 ± 0.049	0.0125 ± 0.033	0.013 ± 0.024	-0.006 ± 0.0014	-0.001 ± 0.016	0.005 ± 0.0071	-0.0065 ± 0.012	-0.001 ± 0.0057	0.0105 ± 0.0035	-0.012 ± 0.034	-0.016 ± 0.0099	-0.007 ± 0.011	-0.0075 ± 0.033	-0.014 ± 0.013	0.012	-0.0265 ± 0.023	-0.033 ± 0.069	0.0075 ± 0.044	0.007 ± 0.013	-0.016 ± 0.0099	0.012 ± 0.013
lMphg:SRB	0.001 ± 0.0071	0.014 ± 0.0085	0.0055 ± 0.0078	-0.0135 ± 0.012	-0.0005 ± 0.018	-0.0125 ± 0.0035	-0.0065 ± 0.0092	0.01 ± 0.018	-0.0155 ± 0.011	-0.003 ± 0.0057	-0.013 ± 0.02	-0.01 ± 0.0028	-0.002 ± 0.0014	-0.0225 ± 0.032	-0.0215 ± 0.0078	-0.0435 ± 0.022	0.002	-0.0095 ± 0.0021	-0.0125 ± 0.0092	-0.006 ± 0.02	-0.013 ± 0.017	-0.029 ± 0.0057	-0.017 ± 0.014	-0.006 ± 0.0071	0.0045 ± 0.005	-0.0095 ± 0.0064	-0.007 ± 0.0071	0.002 ± 0.0085
